Experimental findings from the supplement of paper PMC3334620 are described below.

Whole data set: some 33,000 sequences, median “E-score (-0.5 to 0.5)” near -0.016, cut for the highest 2% near 0.3. Some of the results follow.

The target of the assay is T1, Yer184c (UniProt P39961).
T1 sequence: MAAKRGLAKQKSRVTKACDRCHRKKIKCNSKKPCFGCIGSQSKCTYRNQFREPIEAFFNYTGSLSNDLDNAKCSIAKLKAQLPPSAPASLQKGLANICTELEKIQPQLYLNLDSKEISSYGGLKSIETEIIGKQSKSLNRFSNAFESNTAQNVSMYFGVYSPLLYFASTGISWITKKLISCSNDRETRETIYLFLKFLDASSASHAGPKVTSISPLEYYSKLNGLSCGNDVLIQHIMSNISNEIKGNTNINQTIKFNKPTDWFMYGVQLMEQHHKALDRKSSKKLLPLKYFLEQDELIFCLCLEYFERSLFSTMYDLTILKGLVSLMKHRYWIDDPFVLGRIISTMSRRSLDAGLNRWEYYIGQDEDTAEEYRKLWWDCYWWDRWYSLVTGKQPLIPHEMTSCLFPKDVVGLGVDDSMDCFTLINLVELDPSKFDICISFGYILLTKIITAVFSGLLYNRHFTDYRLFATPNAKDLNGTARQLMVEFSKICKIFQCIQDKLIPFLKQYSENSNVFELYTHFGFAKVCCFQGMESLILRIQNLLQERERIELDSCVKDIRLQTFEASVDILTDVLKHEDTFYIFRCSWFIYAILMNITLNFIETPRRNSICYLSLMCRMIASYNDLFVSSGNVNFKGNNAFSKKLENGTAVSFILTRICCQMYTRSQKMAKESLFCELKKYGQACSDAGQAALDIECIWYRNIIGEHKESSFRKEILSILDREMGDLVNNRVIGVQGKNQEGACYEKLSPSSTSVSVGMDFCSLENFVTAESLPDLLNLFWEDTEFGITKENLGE
The assay is described as follows: PBM E-score (8-mer binding enrichment) (E-score (-0.5 to 0.5)); higher = stronger / more preferred TF binding. The settings on record: protein concentration: 100 nM; construct: GST-full length. The method in brief:
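Yeast transcription factors, full-length or as DNA-binding domains, were expressed with a GST tag using PURExpress in vitro transcription/translation. At about 100-200 nM they were applied to universal all-10-mer Agilent arrays, double-stranded by primer extension on fresh or once-stripped slides. Fluorescent anti-GST detected bound protein, and masliner normalised the scans. E-scores for ungapped eight-base words, pooled with reverse complements, came from the Universal PBM Analysis Suite.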
For GGATAGCA, the “PBM E-score” value was 0.152. The value for CTGTTAGA was -0.0394; that for AAATGGTC was 0.0546; that for TACCGACA was 0.179. The value for ATCTCAGC was 0.0216; that for AAAGCCAT was 0.105. As for CGCATTCC, the figure is -0.319; as for CACGGCAA, 0.199.

Take CACAGGGC: the “PBM E-score” value is -0.271. For AACATCAG, the “PBM E-score” value turned out to be 0.119. For the sequence TACGGAAA, the “PBM E-score” value worked out at 0.362. As for CGTGCCCA, the figure is -0.0799; as for ATCGCAGA, -0.132. As for ACTAAGCG, the figure is -0.0208. Take GTGAGTGA: the “PBM E-score” value was -0.0825.

As for ACCCTAAC, the “PBM E-score” value is -0.0425. The value for AATGATAG was 0.142; that for ATCGTTTG was 0.28. As for GCCAAAGC, the figure is -0.136; as for GACTACAC, -0.0534. Regarding GCAAGACA, the “PBM E-score” value is -0.0345.

As for GTTAATAA, the “PBM E-score” value is 0.262. As for CTGTCGAC, the figure is -0.154; as for CCACGGCG, 0.0177; as for TGGCCCAA, -0.17. As for AGTGATTG, the figure is -0.003; as for ACGAGTGG, -0.16; as for CCGGTGGA, 0.107.

ATTCTAGA: the “PBM E-score” value worked out at 0.057. As for ACGTCGTA, the figure is -0.273; as for AGCCCATC, -0.215; as for ACGACACT, -0.148.

On to ACAGTCGC, for which the “PBM E-score” value was -0.155. The value for CCACTCTC was -0.131; that for GGGCAGCA was -0.211. As for CCGACCAA, the figure is 0.167; as for AGGCTCGA, -0.162; as for TAAAACCA, -0.0862. The value for ACGCGCTA was 0.0714; that for ATCTGCGC was -0.0258; that for GCATGCAA was 0.0435. Regarding CAGGCAAG, the “PBM E-score” value was -0.223.

For CTGCAGCA, the “PBM E-score” value was -0.139.

Consider CGCCGCCC, for which the “PBM E-score” value is -0.0549.

Turning to CTTCAGTA, the “PBM E-score” value turned out to be 0.0326. Consider AAGGTAGG, for which the “PBM E-score” value is -0.0438.

Take CGATCATA: the “PBM E-score” value stood at 0.086.

In the case of GAGGAAAA, the “PBM E-score” value was found to be 0.148. As for AACGGTCT, the “PBM E-score” value was -0.0342.

In the case of AAACACTG, the “PBM E-score” value amounted to 0.0473. As for TGGTGAAA, the figure is -0.0226; as for CAGGTCAA, -0.127; as for GGACGCCC, -0.106. The value for CCAGGTCG was -0.276. As for ACGGTTTC, the figure is 0.0227. As for GCACATAC, the “PBM E-score” value was -0.192. As for ACGTCTCA, the figure is -0.138; as for CACGTGAG, -0.00124. The value for GCCCGATA was -0.00011; that for CCGCAAAG was 0.136. As for CTAGCTCA, the figure is -0.178; as for CATGGATC, -0.19; as for AGTATGCC, -0.0488. With AGGAGCAA, the “PBM E-score” value is -0.191.

Take CTGGTCGA: the “PBM E-score” value is -0.155. As for GATAGTTA, the figure is 0.0291; as for AATTCGAA, 0.024; as for ACGTCAGC, -0.113. As for GCTATGAC, the “PBM E-score” value was -0.0297. Turning to AGCCAATC, the “PBM E-score” value was -0.0865. As for CCGTCACG, the figure is 0.00271; as for GAGTGGAA, -0.0522; as for AGGGCCAA, -0.306.

CGTAGTAA: the “PBM E-score” value was 0.0272.

For AATCCAGG, the “PBM E-score” value is -0.0734. As for ACAGACGA, the “PBM E-score” value was 0.0404. Turning to AATGCGAT, the “PBM E-score” value was -0.14. The value for TCCGAGCA was 0.329; that for ACCTAGCA was -0.108; that for CCAAAGGC was -0.141. For the sequence GAAGGCAA, the “PBM E-score” value was -0.0516. As for AAGATATG, the figure is 0.196; as for CCCGCCTA, -0.029.

GGATTAAC: the “PBM E-score” value was -0.0895. As for CGTCTAGC, the figure is -0.0336; as for AATAAGAC, -0.11.
